Experimental data published in patent US20250101446A1, “METHOD FOR GENETIC TRANSFORMATION OF PLANT ORGANELLE GENOME AND USES THEREOF” (Solar Grants Biotechnology Inc., priority 2022, published 2025).
Some entries share one result that the patent states for a list of compounds.

Test system: LPS-stimulated PBMCs
Experiment: Cytokine secretion from LPS-stimulated PBMCs treated with plantakines (multiplex Luminex)
Format: cell-based, human
Conditions: 1 ng/mL; PBMCs stimulated with 150 μg/mL LPS
Procedure: The bioactivity of our plantakines IL-37b and IL-38 was assessed by monitoring the secretion of 11 cytokines, generally regarded as inflammatory markers, from PBMCs stimulated with an IA. Freshly isolated human PBMCs were subjected to various treatments-combinations of the IAs with the plantakines at different concentrations. Two different model IAs were used, either the bacterial lipopolysaccharides (LPS) or a lectin from Phaseolus vulgaris (phytohaemagglutinin, PHA); each of the IAs was applied onto cells separately, each IA was applied at two concentrations: […]; PHA at 5 and 10 μg/mL. […]
After isolation, the PBMCs from each donor separately were counted, plated in equal numbers per well and stimulated for 24 h with the applied treatments. […]
The whole blood from 5 random human donors was collected in ACD Vacutainer tubes and immediately processed for isolation of PBMCs by gradient density centrifugation using Lympholyte. […] The PBMCs were incubated for 24 hours after the stimulation for analysis of the levels of the secreted cytokines that were determined in the culture supernatant using a multiplex immunoassay (MAGPix®, Luminex), analytes were selected from the Milliplex panel HCYTOMAG-60K, sensitivity range of 3.2 to 10,000 μg/mL. […]

B1: plant-produced recombinant human IL-38, mature form C2-W152 with C-terminal 7xHIS tag (ligand)
chain: CSLPMARYYIIKYADQKALYTRDGQLLVGDPVADNCCAEKICILPNRGLARTKVPIFLGIQGGSRCLACVETEEGPSLQLEDVNIEELYKGGEEATRFTFFQSSSGSAFRLEAAAWPGWFLCGPAEPQQPVQLTKESEPSARTKFYFEQSWHHHHHHH
notes: range 2-152; also called rhIL-38; plantakine IL-38
  attenuation of GM-CSF levels: more than 50%
